Source: publication doi:10.1101/606368
Results are given in words; binding and its absence hold for the method and conditions named. Some binding calls cover weakened binding; strength is not graded here.

By UniProt entry, the sequences of proteins in these tests, tags left out.
UniProt P08799: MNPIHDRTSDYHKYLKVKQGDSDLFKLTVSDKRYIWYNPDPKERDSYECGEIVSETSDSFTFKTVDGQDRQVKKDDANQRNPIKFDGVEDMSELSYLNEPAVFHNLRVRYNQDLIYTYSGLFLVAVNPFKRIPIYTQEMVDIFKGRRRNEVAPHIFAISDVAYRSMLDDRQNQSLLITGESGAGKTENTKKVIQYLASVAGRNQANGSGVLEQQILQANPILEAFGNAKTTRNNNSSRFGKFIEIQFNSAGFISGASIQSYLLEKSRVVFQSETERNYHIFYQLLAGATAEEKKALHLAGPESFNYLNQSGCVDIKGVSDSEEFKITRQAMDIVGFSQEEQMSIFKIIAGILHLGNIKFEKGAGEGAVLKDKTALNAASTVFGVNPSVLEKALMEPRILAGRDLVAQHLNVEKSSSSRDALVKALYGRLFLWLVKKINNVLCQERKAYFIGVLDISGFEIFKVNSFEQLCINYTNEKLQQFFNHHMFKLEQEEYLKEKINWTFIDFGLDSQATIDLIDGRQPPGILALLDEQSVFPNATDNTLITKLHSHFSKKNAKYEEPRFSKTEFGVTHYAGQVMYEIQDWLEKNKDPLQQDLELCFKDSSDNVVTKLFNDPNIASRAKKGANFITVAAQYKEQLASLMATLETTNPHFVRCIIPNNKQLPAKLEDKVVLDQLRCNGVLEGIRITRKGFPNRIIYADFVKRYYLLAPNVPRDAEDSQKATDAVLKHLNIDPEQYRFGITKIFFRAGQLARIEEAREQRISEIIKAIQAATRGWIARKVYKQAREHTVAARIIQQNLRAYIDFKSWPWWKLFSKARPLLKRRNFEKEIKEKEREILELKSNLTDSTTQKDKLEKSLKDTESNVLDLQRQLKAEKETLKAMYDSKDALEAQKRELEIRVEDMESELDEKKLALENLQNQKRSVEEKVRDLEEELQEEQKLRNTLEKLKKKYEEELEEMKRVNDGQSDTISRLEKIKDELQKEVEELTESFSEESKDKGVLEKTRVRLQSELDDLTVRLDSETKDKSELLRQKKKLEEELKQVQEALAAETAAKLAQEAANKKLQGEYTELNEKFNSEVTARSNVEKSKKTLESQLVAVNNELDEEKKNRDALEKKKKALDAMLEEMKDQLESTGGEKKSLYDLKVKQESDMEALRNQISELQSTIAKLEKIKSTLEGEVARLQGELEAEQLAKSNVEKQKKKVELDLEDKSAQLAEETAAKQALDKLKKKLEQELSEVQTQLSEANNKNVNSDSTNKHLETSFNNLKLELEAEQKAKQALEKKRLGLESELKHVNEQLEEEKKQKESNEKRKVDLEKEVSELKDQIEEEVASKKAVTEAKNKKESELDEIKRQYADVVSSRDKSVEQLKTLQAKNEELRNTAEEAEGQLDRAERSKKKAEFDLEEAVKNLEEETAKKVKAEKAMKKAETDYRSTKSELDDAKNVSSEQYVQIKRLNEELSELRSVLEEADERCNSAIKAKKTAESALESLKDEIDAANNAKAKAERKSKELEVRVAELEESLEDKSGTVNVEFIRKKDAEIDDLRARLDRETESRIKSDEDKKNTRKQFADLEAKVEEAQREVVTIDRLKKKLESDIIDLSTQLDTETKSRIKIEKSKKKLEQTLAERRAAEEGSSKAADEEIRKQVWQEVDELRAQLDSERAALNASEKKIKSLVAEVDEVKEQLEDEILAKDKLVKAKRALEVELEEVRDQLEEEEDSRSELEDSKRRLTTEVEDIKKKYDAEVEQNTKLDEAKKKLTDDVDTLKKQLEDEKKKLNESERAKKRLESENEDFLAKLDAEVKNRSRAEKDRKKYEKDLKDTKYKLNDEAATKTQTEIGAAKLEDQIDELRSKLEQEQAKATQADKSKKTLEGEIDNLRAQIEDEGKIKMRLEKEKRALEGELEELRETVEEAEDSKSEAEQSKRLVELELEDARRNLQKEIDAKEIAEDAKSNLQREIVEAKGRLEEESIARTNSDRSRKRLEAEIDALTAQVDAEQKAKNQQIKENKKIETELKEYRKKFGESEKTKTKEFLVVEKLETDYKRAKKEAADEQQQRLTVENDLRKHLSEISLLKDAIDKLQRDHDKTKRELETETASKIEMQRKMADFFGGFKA

Biological target: Dictyostelium myosin II heavy chain (Dictyostelium) (UniProt P08799)
Assay: negative-stain EM with 2D class averages

Dictyostelium myosin II heavy chain (from UniProt P08799 1-2116)
binding: binds
